{
  "sequences": {"note": "Amino acid sequences for entries named in this document (tags omitted).", "UniProt P19474": "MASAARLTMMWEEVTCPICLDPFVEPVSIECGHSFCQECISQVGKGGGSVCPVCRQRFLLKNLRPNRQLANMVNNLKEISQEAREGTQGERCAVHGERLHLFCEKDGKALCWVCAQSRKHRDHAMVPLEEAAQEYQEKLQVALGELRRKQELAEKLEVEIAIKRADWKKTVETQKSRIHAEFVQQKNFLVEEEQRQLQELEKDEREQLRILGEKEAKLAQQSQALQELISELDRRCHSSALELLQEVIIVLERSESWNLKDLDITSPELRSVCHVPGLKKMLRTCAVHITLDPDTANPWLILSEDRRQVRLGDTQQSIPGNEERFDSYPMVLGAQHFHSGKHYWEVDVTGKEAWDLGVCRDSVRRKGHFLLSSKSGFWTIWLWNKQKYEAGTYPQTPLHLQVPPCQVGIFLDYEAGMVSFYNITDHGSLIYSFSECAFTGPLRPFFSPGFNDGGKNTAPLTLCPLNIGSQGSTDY", "UniProt Q15717": "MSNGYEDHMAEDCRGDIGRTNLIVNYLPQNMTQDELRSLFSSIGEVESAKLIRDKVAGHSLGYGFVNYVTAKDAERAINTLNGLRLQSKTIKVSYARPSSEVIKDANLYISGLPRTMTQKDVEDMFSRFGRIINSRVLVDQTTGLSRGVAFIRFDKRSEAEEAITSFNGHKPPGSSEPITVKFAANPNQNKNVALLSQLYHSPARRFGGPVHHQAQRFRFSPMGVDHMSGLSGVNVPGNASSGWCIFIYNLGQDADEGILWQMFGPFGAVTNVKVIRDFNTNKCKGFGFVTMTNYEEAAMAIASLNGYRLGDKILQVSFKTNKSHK"},
  "source": "paper doi:10.1101/2020.01.17.910125",
  "molecular_target": "Trim21 (human (endogenous in HepG2)) (UniProt P19474)",
  "experiment": "proximity ligation",
  "note": "These are yes or no findings as the source states them, for the method shown. Binding seen in cells or lysates may run through a third protein. Some binding calls cover weakened binding; strength is not graded here.",
  "data": [
    {"substance": "Hur (from UniProt Q15717 1-326)", "values": [
      {"measurement": "binding", "result": "binds"}
    ]}
  ]
}
